Measurements reported in PubChem BioAssay AID652272 (Drosophila RNAi Screening Center, 2013)
Test: 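Finding fly genes that regulate Hedgehog signal transduction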 (primary screen). Cell system: Drosophila clone 8 (Cl8) cells. Knock-down reagent: long dsRNA against Drosophila genes. Detection: 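Firefly light from a Hedgehog-responsive ptc promoter reporter and Renilla reference light, both read on a plate reader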. Reading the numbers: firefly Hh reporter signal: higher = more ptc reporter light; Renilla reference signal: higher = more Renilla control light. Active means: 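Hit when the z-score averaged over two replicates is under -2 or over +3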. Calls: active = hit: reporter lowered or raised; inactive = not a hit.
The screen tested about 21,000 reagents; below is an unselected part of those with a known target gene and a result. In the full data, 503 (2.4%) were called active. 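Raw plate light values, not normalised; calls rest on replicate z-scores that were not deposited; hits include reporter decreases as well as increases.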 Names joined by + are all predicted targets of the reagent. Not given: the amount of reagent, the time to read-out.

| gene | amplicon | firefly Hh reporter signal, replicate 1 | firefly Hh reporter signal, replicate 2 | firefly Hh reporter signal, replicate 3 | Renilla reference signal, replicate 1 | Renilla reference signal, replicate 2 | outcome |
| --- | --- | --- | --- | --- | --- | --- | --- |
| Srpk79D (Serine-arginine protein kinase at 79D) | DRSC11668 | 1.21e5 | 1.15e5 | – | 5825 | 4533 | inactive |
| Srpk79D (Serine-arginine protein kinase at 79D) | DRSC11856 | 84210 | 1.22e5 | – | 2133 | 3458 | inactive |
| Cyp4d8 (Cytochrome P450 4d8) | DRSC11131 | 76274 | 39619 | – | 3706 | 1841 | inactive |
| CG4751 | DRSC02776 | 47066 | 40352 | – | 2711 | 1936 | inactive |
| smid (smallminded) | DRSC11398 | 79584 | 90829 | – | 8784 | 6074 | inactive |
| Obp56h (Odorant-binding protein 56h) | DRSC06433 | 1.17e5 | 43395 | – | 3173 | 3921 | inactive |
| ppk21 (pickpocket 21) | DRSC14466 | 72345 | 85833 | – | 2380 | 2307 | inactive |
| Lamtor2 + CG30120 | DRSC05726 | 1.19e5 | 2.18e5 | – | 3376 | 8577 | inactive |
| Lamtor2 + CG30120 | DRSC06922 | 1.00e5 | 65767 | – | 3063 | 5116 | inactive |

2 consecutive entries already listed, for reference:
| gene | amplicon | firefly Hh reporter signal, replicate 1 | firefly Hh reporter signal, replicate 2 | firefly Hh reporter signal, replicate 3 | Renilla reference signal, replicate 1 | Renilla reference signal, replicate 2 | outcome |
| --- | --- | --- | --- | --- | --- | --- | --- |
| Obp56h (Odorant-binding protein 56h) | DRSC06433 | 1.17e5 | 43395 | – | 3173 | 3921 | inactive |
| ppk21 (pickpocket 21) | DRSC14466 | 72345 | 85833 | – | 2380 | 2307 | inactive |

The list goes on.
| gene | amplicon | firefly Hh reporter signal, replicate 1 | firefly Hh reporter signal, replicate 2 | firefly Hh reporter signal, replicate 3 | Renilla reference signal, replicate 1 | Renilla reference signal, replicate 2 | outcome |
| --- | --- | --- | --- | --- | --- | --- | --- |
| vnd (ventral nervous system defective) | DRSC17360 | 5.71e5 | 2.67e5 | – | 31844 | 5064 | inactive |
| vnd (ventral nervous system defective) | DRSC18849 | 1.11e5 | 4.87e5 | 2.54e5 | 4117 | 3797 | inactive |
| CG8349 | DRSC03083 | 87687 | 55701 | – | 2528 | 5421 | inactive |
| bon (bonus) | DRSC16914 | 5.88e5 | 1.22e5 | – | 31113 | 2026 | inactive |
| CG32532 | DRSC19556 | 1.33e5 | 3.34e5 | – | 5507 | 14448 | inactive |
| CG32532 | DRSC19557 | 1.24e5 | 2.31e5 | – | 4506 | 9164 | inactive |
| CG32532 | DRSC19558 | 1.67e5 | 3.59e5 | – | 6346 | 15157 | inactive |
| ova (ovaries absent) | DRSC02879 | 82432 | 57229 | – | 3692 | 2561 | inactive |
| CG17801 | DRSC15273 | 5.34e5 | 1.08e5 | – | 29649 | 3254 | inactive |
| tin (tinman) | DRSC17083 | 6.93e5 | 2.25e5 | – | 32929 | 5797 | inactive |
| CG14990 | DRSC08449 | 54407 | 32459 | – | 1680 | 2291 | inactive |
| CG32982 | DRSC01059 | 3.80e5 | 1.49e5 | – | 23373 | 7868 | inactive |
| CG32982 | DRSC02677 | 1.29e5 | 87909 | – | 2979 | 7160 | inactive |
| CG32982 | DRSC03268 | 1.27e5 | 6.87e5 | 85873 | 3286 | 39937 | inactive |
| CG32982 | DRSC03269 | 1.09e5 | 64733 | – | 2929 | 5318 | inactive |
